Data taken from ChEMBL document CHEMBL3988442, “University of Dundee, Small-Polar-MMV Screening Library” (2021).

Amino acid sequences for entries named in this document (tags omitted). Residues count along the entry.
UniProt P9WNZ1, whole entry: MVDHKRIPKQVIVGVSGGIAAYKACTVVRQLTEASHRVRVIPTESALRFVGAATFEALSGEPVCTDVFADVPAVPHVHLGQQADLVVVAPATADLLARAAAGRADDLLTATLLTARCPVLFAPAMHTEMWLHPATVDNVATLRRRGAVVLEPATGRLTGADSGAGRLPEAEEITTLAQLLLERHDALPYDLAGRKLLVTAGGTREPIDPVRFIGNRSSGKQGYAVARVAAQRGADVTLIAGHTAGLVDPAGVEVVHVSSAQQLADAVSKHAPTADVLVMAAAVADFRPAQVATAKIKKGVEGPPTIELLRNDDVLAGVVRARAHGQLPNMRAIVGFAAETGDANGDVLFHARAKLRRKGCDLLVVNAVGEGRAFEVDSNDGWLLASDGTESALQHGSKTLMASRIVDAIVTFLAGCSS
UniProt Q4DA54, 1-478: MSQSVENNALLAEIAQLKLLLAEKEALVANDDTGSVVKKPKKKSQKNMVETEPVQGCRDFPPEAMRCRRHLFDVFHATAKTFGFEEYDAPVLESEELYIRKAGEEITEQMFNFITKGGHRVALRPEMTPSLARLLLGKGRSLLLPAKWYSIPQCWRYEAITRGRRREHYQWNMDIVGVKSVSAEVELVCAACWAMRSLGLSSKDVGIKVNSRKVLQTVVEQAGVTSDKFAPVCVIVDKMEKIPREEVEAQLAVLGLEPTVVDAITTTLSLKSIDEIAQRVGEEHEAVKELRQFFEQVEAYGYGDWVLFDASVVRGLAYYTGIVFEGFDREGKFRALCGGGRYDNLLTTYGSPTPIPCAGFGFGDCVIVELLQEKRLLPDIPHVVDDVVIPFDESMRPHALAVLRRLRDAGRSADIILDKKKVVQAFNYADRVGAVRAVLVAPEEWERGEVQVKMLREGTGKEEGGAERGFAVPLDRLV

A: 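Enzyme assay of CoaBC with a phosphate dye (Biomol Green) read at 650 nm. Target: Coenzyme A biosynthesis protein CoaBC, Mycobacterium tuberculosis (UniProt P9WNZ1). Tested at 30 µM. Higher reads as stronger inhibition, judged from the few compounds that gave an IC50. Most strong results did not repeat in a second test. Size under these conditions: about 67,000 compounds, about 40 of them at 50% or above in at least one test.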
B: 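Histidine-tRNA ligase, Trypanosoma cruzi CL Brener (UniProt Q4DA54). Enzyme assay of histidyl-tRNA synthetase; the read-out is not stated. Concentration: 30 µM. The record gives no direction; compounds that gave an IC50 in retests scored well above the rest, so higher reads as stronger inhibition. About 69,000 compounds were tested under these conditions; 0.045% (about 31) showed 50% or more at least once.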

Values are the deposited “Percent Effect”, in %. How 0% and 100% were set is not recorded. Most values in the screen are low, and negative values occur. Compounds were drawn at random from those tested, without regard to their results.

- CCc1nc(-c2cncnc2C2CCNC2)no1 (stereo not shown) | A: -6.905%; B: -2.273%
- O=C(COC1CCCC1)NCCc1noc(-c2ccccn2)n1 | A: 0%; B: -13.72%
- COCCN1CCC(NC(=O)Cn2cc(C)c3ccccc32)CC1 | A: -6.114%; B: 6.349%
- Cc1ccc2[nH]c(C(=O)N3CCC4(CC3)C(=O)NCCN4C)nc2c1 | A: 4.113%; B: 7.2%
- CCOCCn1c(=O)n(CCC(C)C)c2ncc(C(=O)O)cc21 | A: 0%; B: 7.027%
- CC(C)(C)c1ncc(C(=O)NCCNS(C)(=O)=O)s1 | A: 3.448%; B: 2.89%
- Cc1csc(N2CCN(C3CCc4ccccc4C3)CC2)n1 (stereo not shown) | A: 7.807%; B: 6.154%
- CC(C)c1ncc2c(n1)CN(CC1CCCCO1)CC2 (stereo not shown) | A: 7.559%; B: 2.041%
- Cc1cc(C(=O)O)ccc1NS(=O)(=O)c1c(C)nn(C(C)C)c1C | B: 11.69%
- CN(C)CC1CSCCCN1S(=O)(=O)c1ccc(C(F)(F)F)cc1 (stereo not shown) | A: -32.35%; B: 5.155%
- Cc1nn2cccnc2c1C(=O)NCc1ccccc1OCC1CC1 | A: 3.406%; B: 7.879%
- C=C1C(C)(C)[C@H]2CC[C@]1(C(=O)N1CCC(Cn3cc(CO)nn3)CC1)C2 | A: -1.456%; B: 0.9901%
- COC1CC2(CCN(Cc3nccn3C)CC2)C1 | A: 0.6536%; B: 4.372%
- CCn1cc(S(=O)(=O)N2CCCC2c2ccc(C)o2)cn1 (stereo not shown) | A: 0.8872%; B: 3.879%
- CN1CCC(Cc2nc(-c3ccnn3C)n(Cc3ccccc3)n2)CC1 | A: -13.17%; B: -37.76%
- COc1ccnc(CN2CCCC(CCc3ccccc3)C2)c1OC (stereo not shown) | A: 11.55%; B: 4.831%
- COc1ccc(CNC(C)Cn2cccn2)cc1OC (stereo not shown) | A: 1.935%; B: 7.471%
- O=C(O)c1ccccc1-n1cc(CN2CCOC(c3cc[nH]n3)C2)cn1 (stereo not shown) | A: 2.153%; B: 8.812%
- CN1CCCC1CNC(=O)CCCOc1ccc(F)cc1 (stereo not shown) | A: -11.17%; B: 4.183%
- CO[C@@H]1CC[C@H]2[C@H]1OCCN2C(=O)c1ccco1 | A: -22%; B: 6.557%
- CCc1nc(C2CCCN2CC(=O)Nc2cc(C)nn2C)no1 (stereo not shown) | A: 0.7833%; B: 6.78%
- O=C(CC1CC1)NC1CCc2c(ccc(=O)n2CC2CC2)C1 (stereo not shown) | A: -7.917%; B: 8.021%
- COc1ccccc1C(=O)N1CCCC1c1ncc2c(n1)CCNC2 (stereo not shown) | A: 2.67%; B: 15.38%
- COc1c(Br)cccc1CCNC(=O)c1ccon1 | A: 0.9569%; B: 1.961%
- Cc1cnc(CN(C)C2CCN(CCc3cnn(C)c3)C2)o1 (stereo not shown) | A: 2.477%; B: 4.151%
- COCC(C)N(C)C(=O)CCc1c(C)nc2c(C#N)cnn2c1C (stereo not shown) | A: 0.3659%; B: 5.422%
- CN(Cc1nc(Cc2cccc(C(F)(F)F)c2)no1)C1CCOCC1 | A: 1.481%; B: 4.478%

The last 3 entries again:

Cc1cnc(CN(C)C2CCN(CCc3cnn(C)c3)C2)o1 (stereo not shown) gave A: 2.477%; B: 4.151%.
COCC(C)N(C)C(=O)CCc1c(C)nc2c(C#N)cnn2c1C (stereo not shown) gave A: 0.3659%; B: 5.422%.
CN(Cc1nc(Cc2cccc(C(F)(F)F)c2)no1)C1CCOCC1 gave A: 1.481%; B: 4.478%.